From patent US20080268477A1, “Antibody Reactive Specifically to Age Derived from 3,4-Dge” (JMS CO., LTD., priority 2005, published 2008)

System: 3,4-DGE-derived AGEs in the peritoneum
Assay: accumulation of 3,4-DGE-derived AGEs in peritoneum of model rat for peritoneal dialysis
Type: in vivo
Conditions: intraperitoneal, twice/day, 30 days

## O=CC(=O)C=CC(O)CO (centres unmarked) [3,4-DGE, 3,4-dideoxyglucosone-3-ene]
2 μM 3,4-DGE-containing dialysate
  color development in parietal peritoneum (anti-3,4-DGE-AGE staining): color development was observed
58 μM 3,4-DGE-containing dialysate
  color development in parietal peritoneum (anti-3,4-DGE-AGE staining): stronger color development was observed
